This series is described as follows: peptide made by a vendor. To be noted: whole synthesis, identity by LC/MS.

HELM strings list residues between dots; [ac] is acetyl, [am] amide, other brackets name non-standard units.

For “PEPTIDE1{N.W.T.P.Q.A.M.L.Y.L.K.G.A.Q.[am]}$$$$V2.0”, the “final HPLC purity” value is listed as above 99%.

The values are drawn from US10912816B2 (THE TRUSTEES OF COLUMBIA UNIVERSITY IN THE CITY OF NEW YORK, priority 2010, dated 2021).
